The list shows a part of the results.
How the values were obtained:
Assay in all cases: log2 fold change, soluble protein after heating vs DMSO (PISA); higher = thermal stabilisation; K562 lysate, 10 uM; active = over 0.2 and 3.5 SD of the protein, either way, in both replicates (recomputed)
[1] = compound: NCC(=O)Nc1ccc(-n2nc(C(F)(F)F)cc2-c2ccc3c(ccc4ccccc43)c2)cc1
How it was run: (§1)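 Thermal stability, expressed as log-two fold change relative to solvent controls, is given from duplicates. Crude K562 extract in PBS pH 7.4 with 1 mM MgCl2, at 1 mg/mL protein, was treated with 10 μM compound for 30 min and heated in aliquots for 3 min across 48°C-58°C. After pooling, adjustment to 0.5% NP-40 at 4°C and centrifugation at 21,000xg for 90 min, supernatant protein was measured by TMTpro 16plex LC-MS/MS with channel sums equalised.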

The chains behind the UniProt entries cited, without tags or fusion partners. Where a name states a change or a piece, a line headed by the entry shows the natural chain unless it says otherwise.
UniProt Q96C23: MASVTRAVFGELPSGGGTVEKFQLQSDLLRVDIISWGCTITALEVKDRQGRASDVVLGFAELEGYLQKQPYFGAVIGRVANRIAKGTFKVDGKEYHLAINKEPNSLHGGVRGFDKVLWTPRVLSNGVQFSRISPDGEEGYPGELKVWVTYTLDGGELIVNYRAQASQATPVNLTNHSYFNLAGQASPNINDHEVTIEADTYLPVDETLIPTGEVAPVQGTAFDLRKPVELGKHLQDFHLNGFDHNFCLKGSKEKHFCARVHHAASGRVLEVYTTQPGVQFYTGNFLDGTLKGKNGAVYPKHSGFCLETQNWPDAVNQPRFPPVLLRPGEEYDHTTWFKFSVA
UniProt Q8TEQ6: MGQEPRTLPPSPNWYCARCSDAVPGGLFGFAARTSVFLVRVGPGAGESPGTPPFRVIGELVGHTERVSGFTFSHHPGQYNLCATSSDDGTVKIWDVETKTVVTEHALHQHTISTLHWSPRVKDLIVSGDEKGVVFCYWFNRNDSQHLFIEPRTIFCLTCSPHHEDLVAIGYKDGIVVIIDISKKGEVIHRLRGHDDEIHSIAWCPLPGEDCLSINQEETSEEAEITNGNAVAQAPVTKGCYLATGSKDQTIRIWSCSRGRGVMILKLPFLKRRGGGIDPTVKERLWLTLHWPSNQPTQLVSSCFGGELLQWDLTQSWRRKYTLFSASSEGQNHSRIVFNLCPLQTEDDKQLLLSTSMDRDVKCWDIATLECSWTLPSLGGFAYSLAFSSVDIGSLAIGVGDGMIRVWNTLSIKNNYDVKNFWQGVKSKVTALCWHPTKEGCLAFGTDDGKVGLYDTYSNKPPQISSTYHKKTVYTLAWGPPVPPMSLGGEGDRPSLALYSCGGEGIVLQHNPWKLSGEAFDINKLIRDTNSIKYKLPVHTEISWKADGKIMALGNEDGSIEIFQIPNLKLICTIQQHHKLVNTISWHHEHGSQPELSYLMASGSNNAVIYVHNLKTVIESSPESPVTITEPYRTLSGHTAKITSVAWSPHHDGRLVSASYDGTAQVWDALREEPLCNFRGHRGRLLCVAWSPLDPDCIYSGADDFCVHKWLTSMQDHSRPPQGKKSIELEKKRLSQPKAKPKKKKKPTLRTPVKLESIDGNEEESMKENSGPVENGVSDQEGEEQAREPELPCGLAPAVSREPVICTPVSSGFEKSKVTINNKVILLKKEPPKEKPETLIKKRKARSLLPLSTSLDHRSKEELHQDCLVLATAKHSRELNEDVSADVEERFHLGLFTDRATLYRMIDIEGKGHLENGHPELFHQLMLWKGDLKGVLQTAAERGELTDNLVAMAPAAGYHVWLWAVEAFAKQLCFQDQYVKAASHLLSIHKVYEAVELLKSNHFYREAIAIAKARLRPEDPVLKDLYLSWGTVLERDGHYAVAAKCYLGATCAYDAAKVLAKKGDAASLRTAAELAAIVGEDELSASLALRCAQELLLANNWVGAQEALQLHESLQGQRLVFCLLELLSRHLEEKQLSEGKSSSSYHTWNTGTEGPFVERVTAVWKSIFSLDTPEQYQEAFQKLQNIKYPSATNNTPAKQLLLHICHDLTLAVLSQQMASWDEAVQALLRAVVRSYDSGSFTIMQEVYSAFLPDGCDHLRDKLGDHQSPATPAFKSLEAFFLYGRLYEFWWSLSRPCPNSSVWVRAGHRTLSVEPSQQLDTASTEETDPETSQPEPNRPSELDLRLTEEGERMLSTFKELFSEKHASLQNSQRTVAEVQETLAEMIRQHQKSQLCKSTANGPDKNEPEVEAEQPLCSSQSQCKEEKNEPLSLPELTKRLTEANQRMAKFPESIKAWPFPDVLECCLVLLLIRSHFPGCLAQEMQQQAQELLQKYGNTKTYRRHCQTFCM
UniProt Q9UJY4: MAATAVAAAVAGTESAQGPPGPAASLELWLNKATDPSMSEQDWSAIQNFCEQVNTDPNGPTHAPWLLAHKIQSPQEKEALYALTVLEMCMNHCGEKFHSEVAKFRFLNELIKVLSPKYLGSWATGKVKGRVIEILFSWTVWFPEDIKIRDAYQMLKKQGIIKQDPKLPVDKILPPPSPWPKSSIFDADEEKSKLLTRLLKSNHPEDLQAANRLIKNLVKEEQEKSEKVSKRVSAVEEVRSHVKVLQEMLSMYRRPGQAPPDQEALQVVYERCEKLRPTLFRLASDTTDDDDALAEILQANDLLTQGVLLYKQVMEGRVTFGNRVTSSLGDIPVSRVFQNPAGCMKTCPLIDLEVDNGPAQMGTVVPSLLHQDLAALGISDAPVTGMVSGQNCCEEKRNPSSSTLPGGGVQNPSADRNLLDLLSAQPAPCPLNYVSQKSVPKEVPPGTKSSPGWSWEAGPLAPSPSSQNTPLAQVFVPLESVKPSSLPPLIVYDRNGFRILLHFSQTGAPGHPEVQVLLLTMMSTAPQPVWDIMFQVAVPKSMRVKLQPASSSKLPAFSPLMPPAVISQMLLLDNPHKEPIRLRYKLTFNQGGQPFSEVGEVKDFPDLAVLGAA
UniProt P58012: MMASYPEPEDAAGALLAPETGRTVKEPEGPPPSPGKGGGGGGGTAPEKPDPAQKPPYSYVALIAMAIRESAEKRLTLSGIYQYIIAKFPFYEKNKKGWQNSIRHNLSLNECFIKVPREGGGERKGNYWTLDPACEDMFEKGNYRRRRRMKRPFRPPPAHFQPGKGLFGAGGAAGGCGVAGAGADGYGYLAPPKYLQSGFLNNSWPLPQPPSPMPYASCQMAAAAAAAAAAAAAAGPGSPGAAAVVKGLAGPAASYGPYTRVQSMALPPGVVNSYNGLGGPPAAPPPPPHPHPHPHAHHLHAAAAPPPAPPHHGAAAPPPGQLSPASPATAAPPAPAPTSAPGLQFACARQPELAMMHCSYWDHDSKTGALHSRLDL
UniProt P28676: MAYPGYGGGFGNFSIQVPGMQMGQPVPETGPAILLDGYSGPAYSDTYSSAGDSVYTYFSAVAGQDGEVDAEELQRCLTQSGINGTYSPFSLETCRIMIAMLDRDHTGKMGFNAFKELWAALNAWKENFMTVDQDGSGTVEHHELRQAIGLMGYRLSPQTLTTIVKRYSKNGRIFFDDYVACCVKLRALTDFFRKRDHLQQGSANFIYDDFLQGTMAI
UniProt Q17RS7: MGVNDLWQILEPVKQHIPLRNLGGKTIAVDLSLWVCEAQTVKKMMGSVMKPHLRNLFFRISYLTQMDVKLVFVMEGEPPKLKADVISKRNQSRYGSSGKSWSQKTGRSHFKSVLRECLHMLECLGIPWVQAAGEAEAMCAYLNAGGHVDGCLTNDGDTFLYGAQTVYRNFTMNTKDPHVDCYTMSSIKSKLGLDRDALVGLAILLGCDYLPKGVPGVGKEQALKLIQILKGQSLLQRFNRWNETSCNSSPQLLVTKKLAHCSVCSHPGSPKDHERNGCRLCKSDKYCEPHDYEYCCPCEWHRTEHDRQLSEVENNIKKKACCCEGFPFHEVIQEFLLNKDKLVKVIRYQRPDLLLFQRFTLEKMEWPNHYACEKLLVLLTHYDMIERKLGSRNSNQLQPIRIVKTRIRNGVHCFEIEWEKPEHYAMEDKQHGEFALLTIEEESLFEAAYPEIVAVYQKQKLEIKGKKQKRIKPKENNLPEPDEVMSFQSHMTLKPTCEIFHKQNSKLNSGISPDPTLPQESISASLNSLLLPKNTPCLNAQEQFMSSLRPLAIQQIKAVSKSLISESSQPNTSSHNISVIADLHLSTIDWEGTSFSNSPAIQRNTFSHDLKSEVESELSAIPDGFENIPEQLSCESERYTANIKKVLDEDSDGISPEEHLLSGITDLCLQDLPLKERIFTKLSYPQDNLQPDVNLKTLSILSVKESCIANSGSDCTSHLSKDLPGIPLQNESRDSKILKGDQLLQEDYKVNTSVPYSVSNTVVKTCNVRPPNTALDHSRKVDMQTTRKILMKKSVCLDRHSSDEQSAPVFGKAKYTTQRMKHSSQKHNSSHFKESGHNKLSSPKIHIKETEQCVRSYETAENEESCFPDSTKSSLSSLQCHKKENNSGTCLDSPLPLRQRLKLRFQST
UniProt P32456: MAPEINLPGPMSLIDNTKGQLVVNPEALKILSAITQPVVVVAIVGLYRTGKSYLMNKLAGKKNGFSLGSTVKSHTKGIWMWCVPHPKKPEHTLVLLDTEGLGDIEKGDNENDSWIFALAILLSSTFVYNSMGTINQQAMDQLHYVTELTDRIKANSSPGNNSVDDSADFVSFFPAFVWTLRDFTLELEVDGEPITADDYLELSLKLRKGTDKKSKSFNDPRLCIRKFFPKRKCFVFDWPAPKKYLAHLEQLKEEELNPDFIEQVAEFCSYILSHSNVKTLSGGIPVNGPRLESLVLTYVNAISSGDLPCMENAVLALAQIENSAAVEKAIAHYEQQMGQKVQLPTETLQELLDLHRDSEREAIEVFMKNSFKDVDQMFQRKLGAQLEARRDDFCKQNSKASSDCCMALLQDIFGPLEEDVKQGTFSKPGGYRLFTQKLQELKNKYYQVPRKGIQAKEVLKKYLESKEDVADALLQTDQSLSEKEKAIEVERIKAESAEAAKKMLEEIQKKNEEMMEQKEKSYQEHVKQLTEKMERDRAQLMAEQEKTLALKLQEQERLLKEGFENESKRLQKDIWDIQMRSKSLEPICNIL
UniProt Q9H840: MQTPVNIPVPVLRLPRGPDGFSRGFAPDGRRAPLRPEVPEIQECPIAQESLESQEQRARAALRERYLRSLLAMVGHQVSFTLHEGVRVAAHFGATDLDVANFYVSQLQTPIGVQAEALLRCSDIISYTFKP
UniProt Q8TAK5: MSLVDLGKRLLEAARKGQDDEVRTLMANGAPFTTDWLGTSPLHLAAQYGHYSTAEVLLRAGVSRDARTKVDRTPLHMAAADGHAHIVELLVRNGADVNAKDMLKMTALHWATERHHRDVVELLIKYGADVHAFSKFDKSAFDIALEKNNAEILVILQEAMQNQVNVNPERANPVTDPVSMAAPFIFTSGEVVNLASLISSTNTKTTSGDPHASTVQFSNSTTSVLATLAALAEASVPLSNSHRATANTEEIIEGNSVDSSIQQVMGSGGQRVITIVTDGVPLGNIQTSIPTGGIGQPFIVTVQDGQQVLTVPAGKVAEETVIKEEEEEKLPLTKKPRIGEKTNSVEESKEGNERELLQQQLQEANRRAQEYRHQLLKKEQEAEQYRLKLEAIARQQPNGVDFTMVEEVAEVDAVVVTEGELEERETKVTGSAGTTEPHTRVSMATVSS
UniProt Q8IVH2: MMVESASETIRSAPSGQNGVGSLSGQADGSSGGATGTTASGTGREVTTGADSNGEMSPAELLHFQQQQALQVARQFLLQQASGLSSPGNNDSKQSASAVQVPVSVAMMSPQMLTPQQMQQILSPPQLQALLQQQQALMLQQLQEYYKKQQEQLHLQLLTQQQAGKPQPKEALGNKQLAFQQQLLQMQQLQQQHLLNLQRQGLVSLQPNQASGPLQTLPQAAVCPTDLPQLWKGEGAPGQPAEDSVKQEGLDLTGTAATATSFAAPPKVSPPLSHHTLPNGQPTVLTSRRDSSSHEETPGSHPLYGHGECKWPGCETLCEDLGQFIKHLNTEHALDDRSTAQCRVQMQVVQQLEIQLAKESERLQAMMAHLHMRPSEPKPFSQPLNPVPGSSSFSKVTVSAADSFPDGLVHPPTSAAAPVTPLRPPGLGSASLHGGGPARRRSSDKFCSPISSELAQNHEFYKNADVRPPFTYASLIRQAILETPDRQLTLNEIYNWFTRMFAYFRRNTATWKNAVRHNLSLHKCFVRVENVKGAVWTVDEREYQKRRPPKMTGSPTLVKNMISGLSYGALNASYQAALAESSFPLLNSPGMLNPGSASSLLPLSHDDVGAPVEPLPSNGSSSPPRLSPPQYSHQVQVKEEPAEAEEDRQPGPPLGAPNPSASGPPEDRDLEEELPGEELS
UniProt Q9NZC3: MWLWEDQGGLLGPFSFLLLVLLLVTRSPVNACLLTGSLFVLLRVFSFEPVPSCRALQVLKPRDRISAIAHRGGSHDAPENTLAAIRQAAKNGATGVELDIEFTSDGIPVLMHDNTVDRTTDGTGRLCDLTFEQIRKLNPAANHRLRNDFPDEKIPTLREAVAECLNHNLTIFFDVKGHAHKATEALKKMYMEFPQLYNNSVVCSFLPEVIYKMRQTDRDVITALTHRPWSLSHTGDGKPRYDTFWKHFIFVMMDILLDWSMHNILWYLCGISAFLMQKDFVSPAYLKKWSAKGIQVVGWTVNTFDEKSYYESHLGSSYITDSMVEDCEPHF
UniProt Q9NXC2: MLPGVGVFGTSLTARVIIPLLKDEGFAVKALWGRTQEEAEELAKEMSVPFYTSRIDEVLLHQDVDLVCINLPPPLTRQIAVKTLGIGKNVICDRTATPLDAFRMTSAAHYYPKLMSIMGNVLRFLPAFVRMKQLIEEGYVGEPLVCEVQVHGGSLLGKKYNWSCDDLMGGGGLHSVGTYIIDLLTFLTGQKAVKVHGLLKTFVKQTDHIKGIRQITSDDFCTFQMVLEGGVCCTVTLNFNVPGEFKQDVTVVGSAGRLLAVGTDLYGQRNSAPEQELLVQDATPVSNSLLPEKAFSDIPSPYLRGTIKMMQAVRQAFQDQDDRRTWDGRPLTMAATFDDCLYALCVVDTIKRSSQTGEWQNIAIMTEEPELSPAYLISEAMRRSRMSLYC

[2] = compound: O=C(CCCCCCC(=O)Nc1ccccc1)NO [vorinostat]
How it was run: as §1

[3] = compound: O=C(O)c1ccc2c(c1)nc(Nc1cccc(Cl)c1)c1ccncc12 [silmitasertib]
How it was run: as §1

[4] = compound: O=C1NC(=O)C(c2cnc3ccccn23)=C1c1cn2c3c(cc(F)cc13)CN(C(=O)N1CCCCC1)CC2
How it was run: as §1

[5] = compound: c1cn2cc(-c3ccc4cn[nH]c4c3)nc(Nc3ccc(N4CCOCC4)cc3)c2n1 [entospletinib]
How it was run: as §1

GALM (UniProt Q96C23)
log2 fold change [1]: inactive: 0.019 | log2 fold change [2]: inactive: 0.02 | log2 fold change [3]: inactive: -0.007 | log2 fold change [4]: inactive: 0.004 | log2 fold change [5]: inactive: -0.053

FUBP1 (UniProt Q96AE4)
log2 fold change [1]: inactive: 0.018 | log2 fold change [2]: inactive: -0.019 | log2 fold change [3]: inactive: 0.119 | log2 fold change [4]: inactive: 0.116 | log2 fold change [5]: inactive: 0.007

GCDH (UniProt Q92947)
log2 fold change [1]: inactive: 0.004 | log2 fold change [2]: active: 0.34 | log2 fold change [3]: inactive: 0.161 | log2 fold change [4]: inactive: 0.187 | log2 fold change [5]: inactive: 0.046

GAA (UniProt P10253)
log2 fold change [1]: inactive: -0.038 | log2 fold change [2]: inactive: -0.176 | log2 fold change [3]: inactive: -0.092 | log2 fold change [4]: inactive: -0.056 | log2 fold change [5]: inactive: 0.068

GAR1 (UniProt Q9NY12)
log2 fold change [1]: inactive: -0.009 | log2 fold change [2]: inactive: 0.111 | log2 fold change [3]: inactive: 0.008 | log2 fold change [4]: inactive: 0.027 | log2 fold change [5]: inactive: 0.012

FOXK1 (UniProt P85037)
log2 fold change [1]: inactive: 0.022 | log2 fold change [2]: active: -0.414 | log2 fold change [3]: inactive: -0.026 | log2 fold change [4]: inactive: -0.048 | log2 fold change [5]: inactive: 0.038

GAN (UniProt Q9H2C0)
log2 fold change [1]: inactive: 0.014 | log2 fold change [2]: inactive: -0.035 | log2 fold change [3]: inactive: 0 | log2 fold change [4]: inactive: -0.041 | log2 fold change [5]: inactive: 0.002

GALNT1 (UniProt Q10472)
log2 fold change [1]: inactive: -0.021 | log2 fold change [2]: inactive: 0.027 | log2 fold change [3]: inactive: -0.014 | log2 fold change [4]: inactive: -0.007 | log2 fold change [5]: inactive: -0.035

FUBP3 (UniProt Q96I24)
log2 fold change [1]: inactive: -0.001 | log2 fold change [2]: active: -0.325 | log2 fold change [3]: inactive: -0.032 | log2 fold change [4]: inactive: 0.047 | log2 fold change [5]: inactive: -0.065

GDAP2 (UniProt Q9NXN4)
log2 fold change [1]: inactive: 0.012 | log2 fold change [2]: inactive: -0.278 | log2 fold change [3]: inactive: 0.035 | log2 fold change [4]: inactive: -0.015 | log2 fold change [5]: inactive: -0.016

GEMIN5 (UniProt Q8TEQ6)
log2 fold change [1]: inactive: 0 | log2 fold change [2]: active: -0.479 | log2 fold change [3]: inactive: 0.004 | log2 fold change [4]: inactive: -0.001 | log2 fold change [5]: inactive: 0.004

GABPB1 (UniProt Q06547)
log2 fold change [1]: inactive: 0 | log2 fold change [2]: active: -0.299 | log2 fold change [3]: inactive: 0.008 | log2 fold change [4]: inactive: -0.052 | log2 fold change [5]: inactive: -0.004

GGA2 (UniProt Q9UJY4)
log2 fold change [1]: inactive: -0.042 | log2 fold change [2]: active: -0.313 | log2 fold change [3]: inactive: 0.016 | log2 fold change [4]: inactive: 0.022 | log2 fold change [5]: inactive: -0.026

FOXL2 (UniProt P58012)
log2 fold change [2]: inactive: -0.501 | log2 fold change [3]: inactive: -0.027 | log2 fold change [5]: inactive: -0.352

FTSJ1 isoform 2 (UniProt Q9UET6)
log2 fold change [1]: inactive: -0.109 | log2 fold change [5]: inactive: 0.047

FUT1 (UniProt P19526)
log2 fold change [4]: inactive: 0.007

GCA (UniProt P28676)
log2 fold change [2]: active: 1.36 | log2 fold change [3]: inactive: -0.104

FUT11 (UniProt Q495W5)
log2 fold change [2]: inactive: 0.058 | log2 fold change [3]: inactive: 0.049 | log2 fold change [4]: inactive: -0.083 | log2 fold change [5]: inactive: 0.071

FUOM (UniProt A2VDF0)
log2 fold change [1]: inactive: 0.03 | log2 fold change [2]: inactive: 0.262 | log2 fold change [3]: inactive: -0.16 | log2 fold change [5]: inactive: 0.024

GFI1B (UniProt Q5VTD9)
log2 fold change [2]: inactive: -0.772 | log2 fold change [3]: inactive: 0.057 | log2 fold change [4]: inactive: -0.294

GEN1 (UniProt Q17RS7)
log2 fold change [1]: inactive: -0.023 | log2 fold change [4]: inactive: 0.188 | log2 fold change [5]: inactive: -0.047

GART (UniProt C9JZG2)
log2 fold change [4]: inactive: -0.069 | log2 fold change [5]: inactive: 0.037

GATA1 (UniProt P15976)
log2 fold change [2]: inactive: -0.176 | log2 fold change [3]: inactive: 0.017 | log2 fold change [4]: inactive: 0.045

FRAS1 isoform 2 (UniProt Q86XX4)
log2 fold change [1]: inactive: 0.092 | log2 fold change [4]: inactive: 0.011

FRAT1 (UniProt Q92837)
log2 fold change [1]: inactive: -0.175 | log2 fold change [5]: inactive: 0.072

GBP2 (UniProt P32456)
log2 fold change [2]: inactive: 0.242 | log2 fold change [3]: inactive: -0.059 | log2 fold change [4]: inactive: -0.047 | log2 fold change [5]: inactive: -0.063

GALNT7 (UniProt H0YAH3)
log2 fold change [1]: inactive: 0.151 | log2 fold change [2]: inactive: -0.017 | log2 fold change [3]: inactive: -0.034 | log2 fold change [5]: inactive: 0.025

GAGE1 (UniProt Q13065)
log2 fold change [5]: inactive: -0.06

GEMIN7 (UniProt Q9H840)
log2 fold change [4]: inactive: 0.068

GALNT4 (UniProt Q8N4A0)
log2 fold change [1]: inactive: 0.004 | log2 fold change [4]: inactive: -0.149 | log2 fold change [5]: inactive: -0.056

GALNT3 (UniProt Q14435)
log2 fold change [4]: inactive: 0.12 | log2 fold change [5]: inactive: -0.1

GBA2 (UniProt Q9HCG7)
log2 fold change [2]: inactive: -0.089 | log2 fold change [3]: inactive: -0.004 | log2 fold change [4]: inactive: -0.091 | log2 fold change [5]: inactive: -0.102

GABPB2 (UniProt Q8TAK5)
log2 fold change [4]: inactive: -0.023 | log2 fold change [5]: inactive: -0.134

FSCN2 isoform 2 (UniProt O14926)
log2 fold change [1]: inactive: -0.013 | log2 fold change [4]: inactive: -0.099 | log2 fold change [5]: inactive: 0.066

FUT4 (UniProt P22083)
log2 fold change [4]: inactive: -0.194 | log2 fold change [5]: inactive: 0.203

GAB3 isoform 2 (UniProt Q8WWW8)
log2 fold change [4]: inactive: -0.042 | log2 fold change [5]: inactive: -0.062

FZD1 (UniProt Q9UP38)
log2 fold change [4]: inactive: 0.161

GFOD2 (UniProt Q3B7J2)
log2 fold change [1]: inactive: -0.092 | log2 fold change [2]: inactive: 0.188 | log2 fold change [3]: inactive: 0.006 | log2 fold change [5]: inactive: -0.191

GADD45A (UniProt P24522)
log2 fold change [4]: inactive: 0.022

GC isoform 3 (UniProt P02774)
log2 fold change [1]: inactive: -0.058 | log2 fold change [4]: inactive: 0.076 | log2 fold change [5]: inactive: -0.053

FPGS (UniProt Q05932)
log2 fold change [5]: inactive: -0.224

GANC (UniProt Q8TET4)
log2 fold change [2]: inactive: 0.045 | log2 fold change [3]: inactive: -0.005 | log2 fold change [4]: inactive: -0.506 | log2 fold change [5]: inactive: -0.013

GATM (UniProt P50440)
log2 fold change [5]: inactive: 0.458

FSIP2 (UniProt Q5CZC0)
log2 fold change [2]: inactive: 0.15 | log2 fold change [3]: inactive: -0.03 | log2 fold change [4]: inactive: -0.083

FOXP4 (UniProt Q8IVH2)
log2 fold change [1]: inactive: 0.009 | log2 fold change [2]: inactive: -0.207 | log2 fold change [3]: inactive: 0 | log2 fold change [5]: inactive: -0.102

GAS6 isoform 1 (UniProt Q14393)
log2 fold change [2]: inactive: 0.018 | log2 fold change [3]: inactive: 0 | log2 fold change [4]: inactive: -0.483 | log2 fold change [5]: inactive: -0.086

G0S2 (UniProt P27469)
log2 fold change [2]: inactive: -0.169 | log2 fold change [3]: inactive: 0.016 | log2 fold change [4]: inactive: 0.039 | log2 fold change [5]: inactive: 0.115

FRMPD2 (UniProt Q68DX3)
log2 fold change [1]: inactive: 0.05 | log2 fold change [2]: inactive: -0.091 | log2 fold change [3]: inactive: 0.156 | log2 fold change [5]: inactive: -0.008

FUT8 (UniProt Q9BYC5)
log2 fold change [2]: inactive: 0.207 | log2 fold change [3]: inactive: -0.255 | log2 fold change [5]: inactive: 0.074

GDPD5 (UniProt Q8WTR4)
log2 fold change [1]: inactive: -0.041 | log2 fold change [4]: inactive: 0.085

G3BP2 isoform 2 (UniProt Q9UN86)
log2 fold change [4]: inactive: -0.103

GDE1 (UniProt Q9NZC3)
log2 fold change [2]: inactive: -0.007 | log2 fold change [3]: inactive: 0.006 | log2 fold change [4]: inactive: 0.04 | log2 fold change [5]: inactive: -0.162

GFOD1 (UniProt Q9NXC2)
log2 fold change [2]: inactive: -0.061 | log2 fold change [3]: inactive: -0.058

From the supplement of paper PMC10849652
